# The list shows a part of the results. Most entries show no effect beyond the scatter of the controls.
# Amino acid sequences for entries named in this document (tags omitted). A change or cut given only in a name is not applied to a line headed by its entry.
# UniProt P28575: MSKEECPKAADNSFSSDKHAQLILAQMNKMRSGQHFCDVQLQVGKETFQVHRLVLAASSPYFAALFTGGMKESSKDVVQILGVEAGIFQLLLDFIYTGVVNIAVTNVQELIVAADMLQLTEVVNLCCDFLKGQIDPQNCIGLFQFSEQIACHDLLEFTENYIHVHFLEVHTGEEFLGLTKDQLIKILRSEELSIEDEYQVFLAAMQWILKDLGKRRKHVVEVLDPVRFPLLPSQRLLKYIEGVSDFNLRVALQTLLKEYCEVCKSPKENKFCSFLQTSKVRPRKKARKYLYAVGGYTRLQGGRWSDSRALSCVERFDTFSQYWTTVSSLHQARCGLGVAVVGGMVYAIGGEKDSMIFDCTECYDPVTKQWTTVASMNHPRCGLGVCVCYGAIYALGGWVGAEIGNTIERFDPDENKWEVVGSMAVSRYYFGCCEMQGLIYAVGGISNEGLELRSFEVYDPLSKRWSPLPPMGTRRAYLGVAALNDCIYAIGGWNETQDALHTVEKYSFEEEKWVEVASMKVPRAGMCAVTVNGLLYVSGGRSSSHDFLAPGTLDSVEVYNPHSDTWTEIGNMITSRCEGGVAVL
# UniProt P23611: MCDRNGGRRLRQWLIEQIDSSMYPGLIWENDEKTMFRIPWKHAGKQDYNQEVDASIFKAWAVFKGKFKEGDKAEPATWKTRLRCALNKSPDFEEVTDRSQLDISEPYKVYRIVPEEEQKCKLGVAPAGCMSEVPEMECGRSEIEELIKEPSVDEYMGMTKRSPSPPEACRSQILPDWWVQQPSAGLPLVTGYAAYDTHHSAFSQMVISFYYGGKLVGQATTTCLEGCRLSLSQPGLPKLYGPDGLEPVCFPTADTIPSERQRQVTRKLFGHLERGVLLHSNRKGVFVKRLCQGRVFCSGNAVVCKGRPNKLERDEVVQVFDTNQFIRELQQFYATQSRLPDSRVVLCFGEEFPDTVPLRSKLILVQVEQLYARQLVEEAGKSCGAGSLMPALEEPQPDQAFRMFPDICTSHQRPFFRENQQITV
# UniProt P17095: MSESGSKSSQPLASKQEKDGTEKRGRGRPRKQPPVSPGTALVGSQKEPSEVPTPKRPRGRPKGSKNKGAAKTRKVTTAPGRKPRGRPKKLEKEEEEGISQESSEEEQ
# UniProt P19246: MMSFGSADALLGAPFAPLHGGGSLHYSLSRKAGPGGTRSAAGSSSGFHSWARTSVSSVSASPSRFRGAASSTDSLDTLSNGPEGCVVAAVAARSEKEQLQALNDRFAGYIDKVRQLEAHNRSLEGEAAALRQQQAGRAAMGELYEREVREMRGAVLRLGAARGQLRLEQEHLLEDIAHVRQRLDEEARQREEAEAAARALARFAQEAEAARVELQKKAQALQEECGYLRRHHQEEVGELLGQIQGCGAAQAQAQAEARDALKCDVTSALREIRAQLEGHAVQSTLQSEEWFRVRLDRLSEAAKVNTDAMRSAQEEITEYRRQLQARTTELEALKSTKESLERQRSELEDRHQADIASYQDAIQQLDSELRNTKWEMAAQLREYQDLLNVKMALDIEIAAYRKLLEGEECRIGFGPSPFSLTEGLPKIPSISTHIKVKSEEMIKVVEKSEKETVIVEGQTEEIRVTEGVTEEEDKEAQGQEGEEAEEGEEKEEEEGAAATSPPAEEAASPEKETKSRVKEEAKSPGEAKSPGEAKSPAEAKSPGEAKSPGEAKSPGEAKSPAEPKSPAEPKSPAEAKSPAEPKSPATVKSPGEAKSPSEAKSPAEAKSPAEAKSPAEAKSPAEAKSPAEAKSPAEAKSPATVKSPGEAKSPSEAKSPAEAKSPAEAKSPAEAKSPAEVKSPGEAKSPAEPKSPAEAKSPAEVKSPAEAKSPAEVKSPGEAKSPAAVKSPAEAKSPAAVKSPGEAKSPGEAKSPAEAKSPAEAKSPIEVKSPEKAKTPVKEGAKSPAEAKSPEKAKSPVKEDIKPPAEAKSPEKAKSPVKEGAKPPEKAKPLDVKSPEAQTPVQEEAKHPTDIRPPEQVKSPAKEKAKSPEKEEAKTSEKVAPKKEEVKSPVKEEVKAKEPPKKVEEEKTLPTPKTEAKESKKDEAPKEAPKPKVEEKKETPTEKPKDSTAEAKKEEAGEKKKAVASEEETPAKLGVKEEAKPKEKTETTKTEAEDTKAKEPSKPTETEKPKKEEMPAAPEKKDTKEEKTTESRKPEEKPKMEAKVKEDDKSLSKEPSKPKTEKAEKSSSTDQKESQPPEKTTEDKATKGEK
# UniProt P28667: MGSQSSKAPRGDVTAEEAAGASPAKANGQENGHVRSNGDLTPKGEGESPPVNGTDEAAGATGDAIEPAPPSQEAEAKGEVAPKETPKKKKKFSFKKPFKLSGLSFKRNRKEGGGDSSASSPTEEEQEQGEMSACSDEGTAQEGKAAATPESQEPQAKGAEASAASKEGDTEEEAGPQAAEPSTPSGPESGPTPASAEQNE
# UniProt P26231: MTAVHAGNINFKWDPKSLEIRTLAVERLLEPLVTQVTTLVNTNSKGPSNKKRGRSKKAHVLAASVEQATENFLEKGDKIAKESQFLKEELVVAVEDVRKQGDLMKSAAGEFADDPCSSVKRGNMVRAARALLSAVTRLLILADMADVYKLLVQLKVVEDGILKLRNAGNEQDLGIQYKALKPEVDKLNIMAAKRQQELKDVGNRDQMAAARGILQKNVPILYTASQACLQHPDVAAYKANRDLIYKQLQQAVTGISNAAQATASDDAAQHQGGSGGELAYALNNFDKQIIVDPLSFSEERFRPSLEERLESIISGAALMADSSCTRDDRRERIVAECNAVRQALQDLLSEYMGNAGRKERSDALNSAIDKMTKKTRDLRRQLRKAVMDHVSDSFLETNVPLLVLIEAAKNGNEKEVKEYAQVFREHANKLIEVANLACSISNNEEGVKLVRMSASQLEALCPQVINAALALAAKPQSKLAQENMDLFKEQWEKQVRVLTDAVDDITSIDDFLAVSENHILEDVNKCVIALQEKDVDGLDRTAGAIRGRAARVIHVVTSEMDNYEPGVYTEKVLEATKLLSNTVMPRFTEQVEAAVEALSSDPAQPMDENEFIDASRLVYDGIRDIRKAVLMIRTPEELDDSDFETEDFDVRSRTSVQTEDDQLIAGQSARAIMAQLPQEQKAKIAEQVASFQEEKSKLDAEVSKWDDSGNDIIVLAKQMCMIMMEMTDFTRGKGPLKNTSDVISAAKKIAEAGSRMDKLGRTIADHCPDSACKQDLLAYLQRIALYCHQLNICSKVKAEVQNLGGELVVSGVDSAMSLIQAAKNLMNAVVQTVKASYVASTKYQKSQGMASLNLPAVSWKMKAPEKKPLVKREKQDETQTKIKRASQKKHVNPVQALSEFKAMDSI
# UniProt P26516: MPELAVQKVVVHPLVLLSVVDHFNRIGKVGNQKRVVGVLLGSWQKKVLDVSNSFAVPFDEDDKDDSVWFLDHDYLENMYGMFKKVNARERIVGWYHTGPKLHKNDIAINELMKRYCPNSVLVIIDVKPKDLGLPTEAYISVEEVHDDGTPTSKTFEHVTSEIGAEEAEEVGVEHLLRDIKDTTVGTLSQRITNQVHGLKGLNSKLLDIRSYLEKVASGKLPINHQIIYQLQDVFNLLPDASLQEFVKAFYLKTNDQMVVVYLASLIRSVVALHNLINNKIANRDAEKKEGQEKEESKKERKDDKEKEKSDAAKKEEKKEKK
# UniProt P24270: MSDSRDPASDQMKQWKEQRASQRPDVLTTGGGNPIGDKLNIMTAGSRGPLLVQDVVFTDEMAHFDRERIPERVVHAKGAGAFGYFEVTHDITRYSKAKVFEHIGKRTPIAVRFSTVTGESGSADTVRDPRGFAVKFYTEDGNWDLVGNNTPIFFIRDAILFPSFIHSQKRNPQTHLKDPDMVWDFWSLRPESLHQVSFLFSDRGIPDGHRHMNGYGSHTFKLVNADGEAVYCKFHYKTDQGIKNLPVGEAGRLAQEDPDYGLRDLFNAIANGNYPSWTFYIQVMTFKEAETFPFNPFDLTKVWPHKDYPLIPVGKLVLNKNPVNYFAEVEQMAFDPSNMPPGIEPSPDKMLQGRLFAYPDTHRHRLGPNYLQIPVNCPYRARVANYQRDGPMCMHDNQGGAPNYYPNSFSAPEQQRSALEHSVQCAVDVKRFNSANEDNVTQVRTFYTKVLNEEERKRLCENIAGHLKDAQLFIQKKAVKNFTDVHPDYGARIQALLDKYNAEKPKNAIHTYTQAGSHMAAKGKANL
# UniProt P30204: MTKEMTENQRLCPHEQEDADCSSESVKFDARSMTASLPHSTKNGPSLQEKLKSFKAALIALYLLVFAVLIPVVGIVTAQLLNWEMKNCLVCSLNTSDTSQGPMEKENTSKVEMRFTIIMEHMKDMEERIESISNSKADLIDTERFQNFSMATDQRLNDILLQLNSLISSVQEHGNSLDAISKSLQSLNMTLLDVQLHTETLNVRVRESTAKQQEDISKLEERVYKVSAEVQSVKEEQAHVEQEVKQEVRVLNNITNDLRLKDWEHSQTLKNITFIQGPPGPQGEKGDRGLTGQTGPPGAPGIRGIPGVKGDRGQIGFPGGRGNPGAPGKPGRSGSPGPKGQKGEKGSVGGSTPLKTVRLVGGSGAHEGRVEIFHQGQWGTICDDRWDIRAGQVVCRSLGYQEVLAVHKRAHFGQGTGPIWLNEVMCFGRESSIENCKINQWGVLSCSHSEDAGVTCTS
# UniProt P28798: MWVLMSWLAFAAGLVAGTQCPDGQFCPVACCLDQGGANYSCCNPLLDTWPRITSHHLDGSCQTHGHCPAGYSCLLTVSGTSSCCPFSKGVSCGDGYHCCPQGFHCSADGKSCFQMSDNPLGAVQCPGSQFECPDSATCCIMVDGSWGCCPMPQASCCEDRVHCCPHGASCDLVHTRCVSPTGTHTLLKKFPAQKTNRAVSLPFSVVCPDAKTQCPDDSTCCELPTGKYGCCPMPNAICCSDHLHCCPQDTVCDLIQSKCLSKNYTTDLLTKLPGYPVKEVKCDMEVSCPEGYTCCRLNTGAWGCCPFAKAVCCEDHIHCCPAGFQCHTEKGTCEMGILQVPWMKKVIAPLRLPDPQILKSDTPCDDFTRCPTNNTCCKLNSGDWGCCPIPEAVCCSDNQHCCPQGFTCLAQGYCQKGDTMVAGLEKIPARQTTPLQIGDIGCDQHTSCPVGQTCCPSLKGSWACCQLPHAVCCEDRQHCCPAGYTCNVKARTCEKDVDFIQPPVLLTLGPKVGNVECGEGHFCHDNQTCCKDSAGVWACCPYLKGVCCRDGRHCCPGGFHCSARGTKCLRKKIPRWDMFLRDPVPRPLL
# UniProt P23198: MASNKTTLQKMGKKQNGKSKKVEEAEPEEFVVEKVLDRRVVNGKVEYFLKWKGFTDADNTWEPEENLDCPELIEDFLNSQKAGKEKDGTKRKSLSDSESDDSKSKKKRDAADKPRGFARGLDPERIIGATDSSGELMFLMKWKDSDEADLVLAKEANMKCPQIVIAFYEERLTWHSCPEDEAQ
# UniProt P16460: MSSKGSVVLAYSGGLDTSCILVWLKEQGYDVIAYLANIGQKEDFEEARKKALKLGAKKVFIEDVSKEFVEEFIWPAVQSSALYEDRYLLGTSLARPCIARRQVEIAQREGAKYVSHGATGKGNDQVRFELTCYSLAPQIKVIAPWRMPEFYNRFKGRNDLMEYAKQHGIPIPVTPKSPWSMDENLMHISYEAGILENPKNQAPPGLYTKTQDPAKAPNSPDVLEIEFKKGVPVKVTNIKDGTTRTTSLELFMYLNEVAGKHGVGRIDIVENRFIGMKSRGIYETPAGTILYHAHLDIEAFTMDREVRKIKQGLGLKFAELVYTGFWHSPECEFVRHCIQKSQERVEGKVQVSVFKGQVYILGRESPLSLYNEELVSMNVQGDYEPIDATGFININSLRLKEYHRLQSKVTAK
# UniProt P30051, whole entry: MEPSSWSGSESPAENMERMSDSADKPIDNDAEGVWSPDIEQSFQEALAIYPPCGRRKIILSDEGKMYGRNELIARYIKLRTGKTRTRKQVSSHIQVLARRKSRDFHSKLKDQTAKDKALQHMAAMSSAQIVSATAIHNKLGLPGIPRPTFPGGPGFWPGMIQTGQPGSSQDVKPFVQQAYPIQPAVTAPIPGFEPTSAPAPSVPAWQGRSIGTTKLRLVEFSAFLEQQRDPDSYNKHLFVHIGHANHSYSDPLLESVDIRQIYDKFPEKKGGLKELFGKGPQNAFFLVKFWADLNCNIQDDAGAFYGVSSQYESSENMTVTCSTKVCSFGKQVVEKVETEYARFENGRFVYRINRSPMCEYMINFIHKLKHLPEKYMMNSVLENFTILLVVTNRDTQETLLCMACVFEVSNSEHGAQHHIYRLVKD
# UniProt P21126: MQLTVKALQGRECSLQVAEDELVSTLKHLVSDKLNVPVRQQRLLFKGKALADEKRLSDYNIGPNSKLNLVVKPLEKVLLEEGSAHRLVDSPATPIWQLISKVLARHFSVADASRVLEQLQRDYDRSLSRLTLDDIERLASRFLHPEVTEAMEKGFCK
# UniProt P19783: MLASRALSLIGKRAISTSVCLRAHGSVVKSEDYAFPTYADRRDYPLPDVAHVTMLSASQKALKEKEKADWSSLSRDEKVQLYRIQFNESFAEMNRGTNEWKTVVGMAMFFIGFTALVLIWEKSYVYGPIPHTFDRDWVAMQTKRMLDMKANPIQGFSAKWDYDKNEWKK
# Compound: CN[C@@H]1C[C@H]2O[C@@](C)([C@@H]1OC)n1c3ccccc3c3c4c(c5c6ccccc6n2c5c31)C(=O)NC4 [staurosporine]
# Experiment: log2 fold change of tryptic peptide abundance, ligand vs vehicle (limited proteolysis) (log2 ratio); higher = more trypsin-susceptible (destabilized)
# Details: ligand concentration: 20 uM; sample: mouse liver crude lysate; replicate design: treated separately
row,Target,log2 fold change
1,"UniProt P21278 (peptide sequence: VTTFEHQYVNAIK, peptide start residue: 121)",-0.774
2,"UniProt P35283 (peptide sequence: FNSITSAYYR, peptide start residue: 103)",0.122
3,"UniProt P28571 (peptide sequence: DWGPALLEHR, peptide start residue: 639)",0.257
4,"UniProt P30658 (peptide sequence: MSQSQVQAASR, peptide start residue: 263)",-0.667
5,"UniProt P28575 (peptide sequence: VALQTLLK, peptide start residue: 250)",0.16
6,"UniProt P28867 (peptide sequence: TTFDAHIYEGR, peptide start residue: 57)",0.712
7,"UniProt P23611 (peptide sequence: VFCSGNAVVCK, peptide start residue: 295)",-0.215
8,"UniProt P17095 (peptide sequence: EPSEVPTPK, peptide start residue: 47)",0.0957
9,"UniProt P19246 (peptide sequence: IPSISTHIK, peptide start residue: 427)",0.444
10,"UniProt P28667 (peptide sequence: LSGLSFKR, peptide start residue: 100)",0.176
11,"UniProt P16879 (peptide sequence: SHFSGIFRPK, peptide start residue: 429)",-0.338
12,"UniProt P21619 (peptide sequence: ALELENDR, peptide start residue: 44)",-0.108
13,"UniProt P16330 (peptide sequence: TAWRLDCAQLKEK, peptide start residue: 151)",-0.579
14,"UniProt P26231 (peptide sequence: ERSDALNSAIDKMTK, peptide start residue: 359)",-0.462
15,"UniProt P30558 (peptide sequence: MDTCSSHLNNSIYKK, peptide start residue: 413)",-0.186
16,"UniProt P26516 (peptide sequence: TFEHVTSEIGAEEAEEVGVEHLLR, peptide start residue: 154)",-0.279
17,"UniProt P26039 (peptide sequence: ALEATTEHIRQELAVFCSPEPPAK, peptide start residue: 2145)",-0.39
18,"UniProt P24270 (peptide sequence: RLCENIAGHLK, peptide start residue: 458)",-0.198
19,"UniProt P32020 (peptide sequence: KLEEEGEQFVK, peptide start residue: 443)",0.145
20,"UniProt P15946 (peptide sequence: LFQREPSAQHRMVSK, peptide start residue: 80)",0.136

# Quoted from the results shown for reference:
row,Target,log2 fold change
2,"UniProt P35283 (peptide sequence: FNSITSAYYR, peptide start residue: 103)",0.122
3,"UniProt P28571 (peptide sequence: DWGPALLEHR, peptide start residue: 639)",0.257

# (cont.)

row,Target,log2 fold change
1,"UniProt P17426 (peptide sequence: ANHPMDAEVTK, peptide start residue: 895)",-0.888
2,"UniProt P27661 (peptide sequence: KASQASQEY, peptide start residue: 135)",-0.0944
3,"UniProt P27600 (peptide sequence: YLVQCFDR, peptide start residue: 328)",-0.49
4,"UniProt P30999 (peptide sequence: SQSSHSYDDSTLPLIDRNQK, peptide start residue: 859)",-0.235
5,"UniProt P32067 (peptide sequence: VLEGHAEKEALKK, peptide start residue: 304)",0.159
6,"UniProt P16332 (peptide sequence: ADTLDLPEELPGVKPFTR, peptide start residue: 74)",-0.257
7,"UniProt P30204 (peptide sequence: TKEMTENQR, peptide start residue: 2)",0.0902
8,"UniProt P28798 (peptide sequence: CVSPTGTHTLLK, peptide start residue: 177)",0.252
9,"UniProt P16406 (peptide sequence: TTYMEDGQIR, peptide start residue: 198)",-0.514
10,"UniProt P23198 (peptide sequence: KVEEAEPEEFVVEK, peptide start residue: 21)",0.193
11,"UniProt P35282 (peptide sequence: FNDKHITTLQASFLTK, peptide start residue: 42)",-0.535
12,"UniProt P16460 (peptide sequence: FKGRNDLMEYAK, peptide start residue: 154)",0.151
13,"UniProt P28705 (peptide sequence: SSAHSAGVGSIFDR, peptide start residue: 336)",0.427
14,"UniProt P30051 (peptide sequence: IILSDEGK, peptide start residue: 58)",0.0643
15,"UniProt P21126 (peptide sequence: LSDYNIGPNSK, peptide start residue: 56)",-0.41
16,"UniProt P19783 (peptide sequence: ANPIQGFSAK, peptide start residue: 150)",-0.231
17,"UniProt P16301 (peptide sequence: TLEHINAILLGAYR, peptide start residue: 410)",-0.217
18,"UniProt P27786 (peptide sequence: YGPIYSLR, peptide start residue: 60)",-0.237
19,"UniProt P29533 (peptide sequence: SVDGSYTIR, peptide start residue: 648)",0.2

# From the supplement of paper PMC12819154, “High-throughput peptide-centric local stability assay extends protein–ligand identification to membrane proteins, tissues and bacteria” (Nature Structural & Molecular Biology, 2025)
